Percent effect of library compounds

Protein sequences, listed by entry. Tags and fused reporters are not part of them.
UniProt P9WPC5, whole entry: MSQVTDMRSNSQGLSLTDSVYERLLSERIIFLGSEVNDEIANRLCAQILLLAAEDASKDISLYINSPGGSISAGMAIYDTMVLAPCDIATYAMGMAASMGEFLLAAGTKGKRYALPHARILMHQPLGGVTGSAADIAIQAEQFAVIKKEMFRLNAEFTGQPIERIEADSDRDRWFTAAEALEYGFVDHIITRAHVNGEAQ
UniProt P9WPC3, whole entry partner: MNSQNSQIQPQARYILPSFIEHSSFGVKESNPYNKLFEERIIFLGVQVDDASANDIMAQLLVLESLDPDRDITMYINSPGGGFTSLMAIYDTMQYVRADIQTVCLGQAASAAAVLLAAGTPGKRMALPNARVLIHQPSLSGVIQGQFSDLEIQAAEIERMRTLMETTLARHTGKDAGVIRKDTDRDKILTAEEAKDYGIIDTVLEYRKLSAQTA
UniProt P9WNZ1, whole entry: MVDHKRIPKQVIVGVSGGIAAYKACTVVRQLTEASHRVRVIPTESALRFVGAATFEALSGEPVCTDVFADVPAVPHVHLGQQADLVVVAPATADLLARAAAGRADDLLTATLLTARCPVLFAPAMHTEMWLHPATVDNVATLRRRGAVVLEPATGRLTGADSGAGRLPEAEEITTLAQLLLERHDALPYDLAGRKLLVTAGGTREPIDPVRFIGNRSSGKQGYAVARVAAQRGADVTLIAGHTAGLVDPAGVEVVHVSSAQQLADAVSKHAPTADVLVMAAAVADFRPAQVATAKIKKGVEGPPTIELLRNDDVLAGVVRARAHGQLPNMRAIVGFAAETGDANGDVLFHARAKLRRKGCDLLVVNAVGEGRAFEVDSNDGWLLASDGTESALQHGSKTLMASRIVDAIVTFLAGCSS

Measurements from “University of Dundee, Small-Polar-MMV Screening Library” (2021), ChEMBL document CHEMBL3988442.

A: 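Assay of Toxoplasma gondii numbers, read through their beta-galactosidase reporter with a colour substrate. Concentration: 10 µM. Higher reads as fewer parasites (inferred from which compounds were picked for retests). Of about 67,000 compounds tested this way, about 260 (0.38%) reached 50% or more in at least one test.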
B: 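ClpP1P2, Mycobacterium tuberculosis (UniProt P9WPC5 and UniProt P9WPC3). Protease assay of ClpP1P2, read by the AMC dye that it sets free. Concentration: 50 µM. Higher reads as stronger inhibition, judged from the few compounds that gave an IC50. Most other retested compounds had strongly negative values. Size under these conditions: about 69,000 compounds, about 10 of them at 50% or above in at least one test.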
C: 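Whole-parasite assay of Trypanosoma brucei over 72 hours; the read-out is not stated. Concentration: 30 µM. Direction is inferred from retests: higher values go with stronger inhibition. Values scatter widely below zero; nearly all retest evidence comes from the higher of the two concentrations used. Size under these conditions: about 64,000 compounds, about 940 of them at 50% or above in at least one test.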
D: 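Enzyme assay of CoaBC with a phosphate dye (Biomol Green) read at 650 nm. Target: Coenzyme A biosynthesis protein CoaBC, Mycobacterium tuberculosis (UniProt P9WNZ1). Compounds at 30 µM. Higher reads as stronger inhibition, judged from the few compounds that gave an IC50. Most strong results did not repeat in a second test. Size under these conditions: about 67,000 compounds, about 40 of them at 50% or above in at least one test.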

Results are given as percent effect. The controls that fix the scale are not given in the record; negative values are as filed. Compounds were drawn at random from those tested, without regard to their results. A dash means the value is not listed here; it may have been measured.

compound	A	B	C	D
O=C(NC1CC1)N1CC[C@H]2[C@H]1CCN2c1nncs1	-	2.43	-	-
COc1ncc(CN2CCC3(CCCN(CC4CCCCC4)C3)C2)cn1 (stereo not given)	-8.05	-1.313	-36.42	1.456
CN(C)C1CCN(C(=O)c2cc3c(s2)CCN3C(=O)C2CC2)CC1.O=C(O)C(F)(F)F	7.867	-	0.5187	-
CCc1cc(NCCCNS(C)(=O)=O)nc(-c2ccccn2)n1	1.147	1.629	1.368	1.911
Cc1nn(C)c2cnn(Cc3ccc(C(=O)NCC4CC4)o3)c12	-0.0672	2.636	-8.153	-1.636
Cn1cc(C(=O)N2CCC(Cc3nccs3)CC2)cn1	6.608	12.94	-20.47	3.272
CCOCCNC(=O)C(CCSC)NC(=O)c1ccc2ccccc2n1 (stereo not given)	-1.057	6.459	-28.6	-2.066
O=C(NCC1CCS(=O)(=O)C1)c1ccc(NC(=O)c2ccco2)cc1 (stereo not given)	-4.809	12.31	4.893	11.11
CCOCCn1c(=O)[nH]c2cc(C(=O)N(C)Cc3ccno3)ccc21	5.724	-6.521	11.33	-1.474
Cc1nc([C@@H]2C[C@@H]3CCN(C(=O)Cc4cccs4)C[C@H]3O2)no1	-	1.348	-	-1.681
O=c1[nH]c(N2CCCCC2)nc2nccc(-c3ccc4c(c3)OCO4)c12	6.994	-47.2	-	-3.947
Cc1c(NCc2ccc(C#N)cc2)cccc1S(=O)(=O)NC1CC1	-0.1827	-3.775	-7.953	-0.6046
Cc1ccc(CN2CC3(CCN(C(=O)c4cscn4)C3)C2)o1.O=C(O)C(F)(F)F	1.997	-	-9.237	-
CN1CC(=O)N(c2ccccc2)CC12CCN(S(C)(=O)=O)C2 (stereo not given)	-	-4.102	-	-1.015
CCOc1ccc(NC(=O)N2CCNC(=O)C2)c(C(F)(F)F)c1	5.175	-7.038	-7.793	-1.402
CO[C@H]1CN(C(=O)OC(C)(C)C)CC1NCc1ccn(C)c1 (stereo not given in full)	-27.16	-14.58	-10.62	0.7576
Cc1cc(OCC(=O)N2CCCC(c3noc(C)n3)C2)no1 (stereo not given)	2.311	2.062	-48.98	2.738
Cc1noc(C)c1CC(=O)N1CCc2sccc2C1	-7.089	-31.13	-5.234	3.182
CCOC(=O)CN1CCC2(CC1)CC(=O)c1ccc3ccccc3c1O2	-10.67	-515	-6.945	3.883
O=C(O)C(F)(F)F.[H][C@@]12CCN(C(=O)c3ncccn3)C[C@]1(COc1ccccn1)CCO2	2.203	-	-155.3	-
COc1ccc2c(O)c(NC(=O)NCC3CC3)cnc2c1	-5.573	12.7	-18.81	-2.5
c1cnc(N2CCC3(CN(CC4CCOC4)C3)C2)nc1 (stereo not given)	-	3.081	-	-9.13
CC(C)c1ccc(NC(=O)Cn2cc(I)cn2)cc1	-3.664	-8.8	-34.01	0.2532
[H][C@@]12CS(=O)(=O)C[C@]1([H])N(Cc1ccc(F)c(C)c1)CCN2C(=O)C1CCC1	5.003	-	-40.77	-
CCN(Cc1ccoc1)C(=O)NC1CCN(C(=O)OC(C)(C)C)C1 (stereo not given)	7.375	-8.596	-17.5	-5.052
Cc1nn(-c2ncnc3[nH]cnc23)c2c1C(CC(C)C)CC(=O)N2 (stereo not given)	6.759	-6.068	53.52	-5.469
CC(C)(C)n1cc(CNc2ccc(CNS(C)(=O)=O)cc2)cn1	12.91	-3.008	-15.53	8.099
Cc1nc(C)c(CC(=O)NCc2cccnc2OC2CCCC2)c(=O)[nH]1	10.37	-7.632	-12.02	0.8547
CC(C)NC1CCc2[nH]c(=O)ccc2C1 (stereo not given)	-	-4.623	-	1.091
O=C(O)C(F)(F)F.c1cnc(N2CCC3(CCCN(CC4CC4)C3)CC2)nc1	-1.553	-	7.751	-
COc1c(CNCC(O)COc2ccc3c(c2)OCO3)c(C)nn1C (stereo not given)	3.093	11.19	-35.34	-0.1626
CCCN(Cc1ccc(C(=O)NCC2COCCO2)c(=O)[nH]1)C1CC1 (stereo not given)	9.779	-0.7892	-5.692	4.472
CCn1c(N)nc2cc(C(=O)NCCc3sccc3C)cnc21	-1.314	-10.79	-31.26	6.61
c1csc(-c2nnc(CSCCN3CCOCC3)o2)c1	2.245	-2.05	-3.064	-4.114
COc1ccc(CNC2CCCc3nc(N(C)C)ncc32)c(OC)c1 (stereo not given)	0.9091	-10.08	1.307	1.481
CCN(C)c1ncnc2c1CCN(C(=O)NCc1cccnc1)CC2.O=C(O)C(F)(F)F	-4.451	-	-102.7	-
Cc1nn(C)c(C)c1NC(=O)CN1CCCC1c1noc(C2CC2)n1 (stereo not given)	-0.3284	6.623	-64.93	2.345
O=C([C@H]1COC[C@H]2CN(c3ncc(F)cn3)C[C@H]21)N1CCOCC1	-	1.902	-	-
O=C(c1ccoc1)N1CCC2(CC1)COC(COCc1ccccn1)C2 (stereo not given)	-8.003	-3.053	-203.4	-7.009
Cc1nc(-c2nnc[nH]2)sc1C(=O)N1CCCC1c1ccsc1 (stereo not given)	8.24	7.379	-48.5	0.2049
CN(C)c1cccc(C2CCCN2CCCN2CCOC2=O)c1 (stereo not given)	34.85	-1.287	100.6	0
Cn1ccc(NC(=O)Cc2cccc(F)c2)n1	-14.56	9.699	-57.46	-1.035
O=C(NCc1cc[nH]n1)NCC(c1ccccc1Cl)N1CCCC1 (stereo not given)	0.4785	-0.9636	-5.732	0.4405
CN1CCN(CC2CC2)C(=O)C12CCN(C(=O)CC(F)(F)F)CC2.O=C(O)C(F)(F)F	-6.728	-	-2.254	-

For reference, 3 entries once more:

* CCOCCNC(=O)C(CCSC)NC(=O)c1ccc2ccccc2n1 (stereo not given) | A: -1.057%; B: 6.459%; C: -28.6%; D: -2.066%
* CCN(C)c1ncnc2c1CCN(C(=O)NCc1cccnc1)CC2.O=C(O)C(F)(F)F | A: -4.451%; C: -102.7%
* COc1c(CNCC(O)COc2ccc3c(c2)OCO3)c(C)nn1C (stereo not given) | A: 3.093%; B: 11.19%; C: -35.34%; D: -0.1626%